Part of at least one peptide drawing is inferred or uncertain, most often the ends. Where a SMILES comes first, the peptide text is derived from it.
tested on: T2 cells expressing HLA-A2; assay: peptide sensitization assay (51Cr release), lysis by CTL 213; type: cell-based; conditions: 1000 51Cr-labeled T2 target cells, various concentrations of peptide 30 minutes at 37° C., 10000 CTL 213 cells, release after 4 hours

SMILES | sensitization of target cells to lysis by CTL 213 (chromium release)
CC[C@H](C)[C@H](NC(=O)[C@H](Cc1ccccc1)NC(=O)[C@@H](NC(=O)[C@H](CC(=O)O)NC(=O)[C@@H]1CCCN1C(=O)[C@H](CC(C)C)NC(=O)[C@@H](N)C(C)C)C(C)C)C(=O)N[C@@H](CCCNC(=N)N)C(=O)N[C@@H](CS)C(=O)N[C@H](C(=O)O)C(C)C [SEQ ID NO: 6, Val Leu Pro Asp Val Phe Ile Arg Cys Val] (H-VLPDVFIRCV-OH) | sensitized the target T2 cell line to CTL 213
CC[C@H](C)[C@H](NC(=O)[C@H](Cc1ccccc1)NC(=O)[C@@H](NC(=O)[C@H](CC(=O)O)NC(=O)[C@@H]1CCCN1C(=O)[C@H](CC(C)C)NC(=O)[C@@H](N)C(C)C)C(C)C)C(=O)N[C@@H](CCCNC(=N)N)C(=O)N[C@@H](CS)C(=O)O [SEQ ID NO: 8, Val Leu Pro Asp Val Phe Ile Arg Cys] (H-VLPDVFIRC-OH) | sensitized the target T2 cell line to CTL 213
CC[C@H](C)[C@H](NC(=O)[C@H](Cc1ccccc1)NC(=O)[C@@H](NC(=O)[C@H](CC(=O)O)NC(=O)[C@@H]1CCCN1C(=O)[C@H](CC(C)C)NC(=O)[C@@H](N)C(C)C)C(C)C)C(=O)N[C@@H](CCCNC(=N)N)C(=O)O [SEQ ID NO: 9, Val Leu Pro Asp Val Phe Ile Arg] (H-VLPDVFIR-OH) | failed to confer any recognition

Reference: US5886145A, “Isolated nucleic acid molecules, peptides which form complexes with MHC molecule HLA-A2 and uses thereof” (INSERM (Institute National de la Sante et de la Rechereche …, priority 1997, dated 1999)
